Experimental data as given in paper PMC9722908.

Protein sequences, listed by entry. Tags and fused reporters are not part of them. Lines headed by an entry give the natural chain unless they say otherwise; changes in a name come on top.
UniProt P06803: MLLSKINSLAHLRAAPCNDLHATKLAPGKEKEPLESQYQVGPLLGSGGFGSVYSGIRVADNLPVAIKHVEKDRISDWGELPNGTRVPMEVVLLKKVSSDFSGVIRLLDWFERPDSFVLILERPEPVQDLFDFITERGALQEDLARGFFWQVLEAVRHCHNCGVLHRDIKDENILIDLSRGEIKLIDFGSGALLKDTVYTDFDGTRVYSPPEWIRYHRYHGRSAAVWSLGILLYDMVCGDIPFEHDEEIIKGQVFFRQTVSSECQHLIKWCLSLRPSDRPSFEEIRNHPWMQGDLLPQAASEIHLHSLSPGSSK

B1: endogenous TRIF of BMDMs (protein, UniProt Q80UF7 1-732)
chain: MDNPGPSLRGAFGILGALERDRLTHLKHKLGSLCSGSQESKLLHAMVLLALGQDTEARVSLESLKMNTVAQLVAHQWADMETTEGPEEPPDLSWTVARLYHLLAEENLCPASTRDMAYQVALRDFASQGDHQLGQLQNEAWDRCSSDIKGDPSGFQPLHSHQGSLQPPSASPAVTRSQPRPIDTPDWSWGHTLHSTNSTASLASHLEISQSPTLAFLSSHHGTHGPSKLCNTPLDTQEPQLVPEGCQEPEEISWPPSVETSVSLGLPHEISVPEVSPEEASPILPDALAAPDTSVHCPIECTELSTNSRSPLTSTTESVGKQWPITSQRSPQVPVGDDSLQNTTSSSPPAQPPSLQASPKLPPSPLSSASSPSSYPAPPTSTSPVLDHSETSDQKFYNFVVIHARADEQVALRIREKLETLGVPDGATFCEEFQVPGRGELHCLQDAIDHSGFTILLLTASFDCSLSLHQINHALMNSLTQSGRQDCVIPLLPLECSQAQLSPDTTRLLHSIVWLDEHSPIFARKVANTFKTQKLQAQRVRWKKAQEARTLKEQSIQLEAERQNVAAISAAYTAYVHSYRAWQAEMNKLGVAFGKNLSLGTPTPSWPGCPQPIPSHPQGGTPVFPYSPQPPSFPQPPCFPQPPSFPQPPSFPLPPVSSPQSQSFPSASSPAPQTPGPQPLIIHHAQMVQLGVNNHMWGHTGAQSSDDKTECSENPCMGPLTDQGEPLLETPE
B2: endogenous IRF3 of murine macrophages (protein, UniProt P70671 1-419)
chain: METPKPRILPWLVSQLDLGQLEGVAWLDESRTRFRIPWKHGLRQDAQMADFGIFQAWAEASGAYTPGKDKPDVSTWKRNFRSALNRKEVLRLAADNSKDPYDPHKVYEFVTPGARDFVHLGASPDTNGKSSLPHSQENLPKLFDGLILGPLKDEGSSDLAIVSDPSQQLPSPNVNNFLNPAPQENPLKQLLAEEQWEFEVTAFYRGRQVFQQTLFCPGGLRLVGSTADMTLPWQPVTLPDPEGFLTDKLVKEYVGQVLKGLGNGLALWQAGQCLWAQRLGHSHAFWALGEELLPDSGRGPDGEVHKDKDGAVFDLRPFVADLIAFMEGSGHSPRYTLWFCMGEMWPQDQPWVKRLVMVKVVPTCLKELLEMAREGGASSLKTVDLHISNSQPISLTSDQYKAYLQDLVEDMDFQATGNI

Biological target: endogenous Pim1 of BMDMs (mouse (endogenous in BMDMs)) (UniProt P06803)
Experiment: co-IP; endogenous proteins; BMDMs stimulated with LPS (100 ng ml^-1) for 1 h, immunoprecipitation with an anti-Pim1 antibody, immunoblot

| Binder | binding |
| --- | --- |
| B1 | binds |
| B2 | binds |

No constants are given. Whether binding was seen depends on the method and setting. Binding seen in cells or lysates may run through a third protein. A result given as binding can be weak or reduced; the word gives no strength.
